Experimental data taken from publication PMC12315821.

Sequences of proteins named here, by UniProt entry; tags and fusion partners are left off. Residues count along the entry.
UniProt P29595, residues 1-76: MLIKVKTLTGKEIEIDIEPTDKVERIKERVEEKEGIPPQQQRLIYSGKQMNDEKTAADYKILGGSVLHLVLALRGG

Biological target: neuronal precursor cell-expressed developmentally down-regulated protein 8 (NEDD8), endogenous in HT22 cells (mouse (endogenous in HT22)) (UniProt P29595)
Experiment: affinity purification with mass spectrometry; Co-IP with a NEDD8 antibody from NETs-treated HT22 cells, silver staining, mass spectrometry

B1: TRIM56, endogenous in HT22 cells (protein, UniProt Q80VI1 1-734)
chain: MNSKVSSPTLLEALSSDFLACKICLEQLHTPKTLPCLHTYCQDCLAQLDIGGQVRCPECREIVPVPAEGVAAFKTNFFVNGLLDLVKARAPGDVHSGKPTCALCPLVGGKSSGGPATARCLDCADDLCQACADGHRCSRQTHKHRVVDLVGYRAGWYDEEARERQASQCPQHPGEALCFLCQPCSQLLCKDCRLGPHIDHPCLPLAEAVRSRKPGLEELLAGVDSNLVELEATRVAEKEALALLREQAASVGTQVEEAAERILKSLLAQKQEVLGQLRALVEAAEEATRERLTKIERQEQVAKAAAAFARRVLSLGLEAEILSLEGAITQRLRQLQDAPWTSGPTRCVLPQLELHPGLEDKNCHLLRLIFEEPKQSPKDSGKGGAGTQGGDEAQGQGDDRTKIGKQGGAQPLTPKEGKDQNPQEDDGVFIERGNRPNKKKKCKGRGKSVSREPSPILRPNLEGSGLLPRPVFSWSFPTRMPGDKRSPRITGLCPYGPQEILVADEQNRVLKRFSLNGDYKGTVQVPEGCSPCSVAALQNAVAFSANAKLYLVSPDGEIQWRRSLSLTQSSHAVAAMPCGDRVAVSVAGHVEVYKKDGSLATRFIPGGKASRGQRALVFLTTSPQGNFVGSDWQQNSVVFCDGLGQVIWEYKGPGLHGCQPGSVSVDKKGYIFLTLREVNKVVILDPKGSLLGDFLTAYHGLEKPRVTTMVDGKYLVVSLSNGTIHVFRVRFPDS
binding: binds

No constants are given. Whether binding was seen depends on the method and setting. Binding seen in cells or lysates may run through a third protein. Here binding means that the protein was enriched with, or labelled near, the bait; the list need not be complete.
